Data on 21 compounds can be found in PubChem BioAssay AID330 (DTP/NCI, 2004).

The test system of the test is P388 leukemia ip, CD2F1 mice, survival T/C. In words: NCI In Vivo Anticancer Drug Screen. Data for tumor model P388 Leukemia (intraperitoneal) in CD2F1 (CDF1) mice. The conditions noted are these: T/C endpoint: median survival time, higher T/C = longer survival.
The mark [1] stands for this setting: dose: 50.0 mg/kg/injection, schedule: Q01DX009 (ip), vehicle: saline.
Setting [2] is: dose: 12.5 mg/kg/injection, schedule: Q01DX009 (ip), vehicle: other.
[3] abbreviates: dose: 25.0 mg/kg/injection, schedule: Q01DX009 (ip), vehicle: other.
Where [4] appears, read: dose: 200.0 mg/kg/injection, schedule: Q01DX009 (ip), vehicle: other.
Setting [5] is: dose: 400.0 mg/kg/injection, schedule: Q01DX009 (ip), vehicle: other.
The mark [6] stands for this setting: dose: 50.0 micrograms/kg/injection, schedule: Q01DX005 (ip), vehicle: Klucel (hydroxypropylcellulose) (HPC).

The list shows only some results of the screen, not a fair sample: it gathers tests that were run many times, whatever their T/C, doses with no T/C, and many T/C values between a quarter and a half above the control. Further doses and runs are listed elsewhere. T/C gives the treated animals as a percentage of the vehicle group. Some doses have a count of surviving animals in place of a T/C: the source holds a T/C of zero for them, seemingly a mark for toxic or unscored doses. Some survivor counts are full or nearly so, which does not show that the dose was tolerated: survival well below the control is almost never listed, so the zero probably covers shortened survival too. Survivors were counted at the toxicity check, usually on the fifth day, unless a day is given; later deaths do not show. Schedules are NCI's codes, read here as Q, the interval in days (D) or hours (H), X, the number of doses. Some entries hold several experiments; the results are listed from low to high. Where survival is the endpoint, this PubChem deposit counts one and a half times the control or more as active, and values a quarter to a half above the control carry no call in these data; other NCI protocols may use other cut-offs.

Regarding `NC(CSCCc1ccncc1)C(=O)O` (stereo not drawn), the survivor count under setting [1] is 6 of 6; the survivor count (dose: 100.0 mg/kg/injection, schedule: Q01DX009 (ip), vehicle: saline) is 6 of 6; the survivor count (dose: 200.0 mg/kg/injection, schedule: Q01DX009 (ip), vehicle: saline) is on record as 6 of 6.
`COc1ccc(/C=N/Nc2nnc3c4cccnc4c4ccccc4c3n2)cc1OC`: the survivor count by setting is: (dose: 3.12 mg/kg/injection, schedule: Q01DX001 (ip), vehicle: saline with Tween-80) 6 of 6; (dose: 6.25 mg/kg/injection, schedule: Q01DX001 (ip), vehicle: saline with Tween-80) 6 of 6; (dose: 100.0 mg/kg/injection, schedule: Q01DX001 (ip), vehicle: saline with Tween-80) 0 of 6. The T/C (dose: 12.5 mg/kg/injection, schedule: Q01DX001 (ip), vehicle: saline with Tween-80) was 89, 90, 97, 131 % of control and the T/C (dose: 25.0 mg/kg/injection, schedule: Q01DX001 (ip), vehicle: saline with Tween-80) is on record as 95, 100, 102, 108 % of control.
On to `CCCCOC(=O)N(CCCl)N=O`, for which the survivor count is recorded as 5 of 6 (dose: 10.0 mg/kg/injection, schedule: Q01DX009 (ip), vehicle: saline with Tween-80) and 4 of 6 (dose: 20.0 mg/kg/injection, schedule: Q01DX009 (ip), vehicle: saline with Tween-80).
`OC(c1ccccc1)(c1ccccc1)c1ccc(C[P+](c2ccccc2)(c2ccccc2)c2ccccc2)cc1`: the survivor count was 3 of 6 (dose: 6.25 mg/kg/injection, schedule: Q01DX009 (ip), vehicle: other); 0 of 6 under setting [2]; 0 of 6 and 2 of 6 under setting [3]; 0 of 6 (dose: 50.0 mg/kg/injection, schedule: Q01DX009 (ip), vehicle: other); 0 of 6 (dose: 100.0 mg/kg/injection, schedule: Q01DX009 (ip), vehicle: other); 0 of 6 under setting [4]. In addition, under setting [5], the survivor count is 0 of 6.
For `Brc1cccc[n+]1Cc1cc2ccccc2c2ccccc12`, the survivor count was 5 of 5 (dose: 100.0 mg/kg/injection, schedule: Q04DX002 (ip), vehicle: Klucel (hydroxypropylcellulose) (HPC)); 5 of 5 (dose: 200.0 mg/kg/injection, schedule: Q04DX002 (ip), vehicle: Klucel (hydroxypropylcellulose) (HPC)); 0 of 5 (dose: 400.0 mg/kg/injection, schedule: Q04DX002 (ip), vehicle: Klucel (hydroxypropylcellulose) (HPC)).
For `CCNc1ccc2ccccc2c1N=Nc1ccc(N=Nc2ccccc2)cc1`, the survivor count (dose: 100.0 mg/kg/injection, schedule: Q01DX009 (ip), vehicle: saline with Tween-80) was 6 of 6.
For the compound `NNS(=O)(=O)c1ccccc1`, the survivor count (dose: 200.0 mg/kg/injection, schedule: Q01DX009 (ip), vehicle: saline with Tween-80) is listed as 0 of 6.
Turning to `COC(=O)CCC(=O)C(C#N)c1ccc(CC#N)cc1` (stereo not drawn), the survivor count (dose: 100.0 mg/kg/injection, schedule: Q01DX005 (ip), vehicle: saline with Tween-80) is listed as 3 of 6 and the survivor count (dose: 200.0 mg/kg/injection, schedule: Q01DX005 (ip), vehicle: saline with Tween-80) was 0 of 6.
Turning to `CCC1(O)C(=O)OCc2c1cc1n(c2=O)Cc2c-1nc1ccccc1c2OC` (stereo not drawn), the survivor count by setting is: (dose: 50.0 mg/kg/injection, schedule: Q01DX009 (ip), vehicle: suspension in saline) 6 of 6; (dose: 100.0 mg/kg/injection, schedule: Q01DX009 (ip), vehicle: suspension in saline) 5 of 6; (dose: 200.0 mg/kg/injection, schedule: Q01DX009 (ip), vehicle: suspension in saline) 3 of 6.
As for `CSC(=S)NN=C(c1ccccc1)c1ccccc1`, the survivor count reads like this: (dose: 6.25 mg/kg/injection, schedule: Q01DX009 (ip), vehicle: saline) 6 of 6; (dose: 12.5 mg/kg/injection, schedule: Q01DX009 (ip), vehicle: saline) 6 of 6; (dose: 25.0 mg/kg/injection, schedule: Q01DX009 (ip), vehicle: saline) 6 of 6; under setting [1], 5 of 6.
With `COc1ccccc1C1OC2=C(Nc3ccc(Cl)cc3N2)C1=O` (stereo not drawn), the survivor count (dose: 60.0 mg/kg/injection, schedule: Q01DX005 (ip), vehicle: Klucel (hydroxypropylcellulose) (HPC)) is 6 of 6; the survivor count (dose: 120.0 mg/kg/injection, schedule: Q01DX005 (ip), vehicle: Klucel (hydroxypropylcellulose) (HPC)) is 6 of 6; the survivor count (dose: 240.0 mg/kg/injection, schedule: Q01DX005 (ip), vehicle: Klucel (hydroxypropylcellulose) (HPC)) is listed as 4 of 6.
For `N=C(N)c1ccc(-c2ccc(-c3ccc(C(=N)N)cc3)o2)cc1`, the T/C (dose: 12.5 mg/kg/injection, schedule: Q01DX009 (ip), vehicle: saline with Tween-80) is 128 % of control.
In the case of `Cc1ccc(S(=O)(=O)N/N=C/c2c(Cl)n(C(=O)c3ccccc3F)c3ccccc23)cc1`, the survivor count runs as follows: (dose: 100.0 mg/kg/injection, schedule: Q01DX001 (ip), vehicle: Klucel (hydroxypropylcellulose) (HPC)) 6 of 6; (dose: 200.0 mg/kg/injection, schedule: Q01DX001 (ip), vehicle: Klucel (hydroxypropylcellulose) (HPC)) 6 of 6.
Turning to `Nc1c(O)c(S(=O)(=O)O)c(O)c2c1C(=O)c1ccccc1C2=O`, the survivor count (dose: 240.0 mg/kg/injection, schedule: Q01DX005 (ip), vehicle: saline with Tween-80) is listed as 0 of 6.
Turning to `COC(=O)/C=N/NS(=O)(=O)c1ccc(C)cc1`, the survivor count runs as follows: under setting [4], 4 of 6; under setting [5], 0 of 6.
Take `O=C(c1cc2c(cc1Br)OCO2)N1CCc2ccccc21`: the survivor count is on record as 6 of 6 under setting [2] and 6 of 6 under setting [3].
On to `O=C1NN(c2ccccc2)C(=O)/C1=C\c1ccccc1O`, for which, where the note is “dose: 87.5 mg/kg/injection, schedule: Q01DX009 (ip), vehicle: Klucel (hydroxypropylcellulose) (HPC)”, the survivor count is on record as 4 of 6.
For `CC(=O)OC1OC(CS[As](C2CCCCC2)C2CCCCC2)C(OC(C)=O)C(OC(C)=O)C1OC(C)=O` (stereo not drawn), the survivor count is listed as 3 of 6 (dose: 50.0 mg/kg/injection, schedule: Q01DX009 (ip), vehicle: Klucel (hydroxypropylcellulose) (HPC)); 0 of 6 (dose: 100.0 mg/kg/injection, schedule: Q01DX009 (ip), vehicle: Klucel (hydroxypropylcellulose) (HPC)); 0 of 6 (dose: 200.0 mg/kg/injection, schedule: Q01DX009 (ip), vehicle: Klucel (hydroxypropylcellulose) (HPC)).
As to `CC(C)(C)[Si](C)(C)OC(=O)Nc1ccc(N(CCCl)CCCl)cc1`, the T/C (dose: 5.0 mg/kg/injection, schedule: Q04DX003 (ip), vehicle: distilled water + Tween-80) was 138 % of control and the T/C (dose: 20.0 mg/kg/injection, schedule: Q04DX003 (ip), vehicle: distilled water + Tween-80) is 139 % of control. In addition, the survivor count is, setting by setting: (dose: 40.0 mg/kg/injection, schedule: Q04DX003 (ip), vehicle: distilled water + Tween-80) 5 of 6 and 6 of 6; (dose: 80.0 mg/kg/injection, schedule: Q04DX003 (ip), vehicle: distilled water + Tween-80) 2 of 6 and 4 of 6.
Consider `C=C1C[C@](OC)([C@H](O)C(=O)N[C@@H](OC)[C@@H]2C[C@@H](O)C(C)(C)[C@@H](C[C@@H](COC)OC)O2)O[C@H](C)[C@@H]1C`, for which the T/C is, setting by setting: (dose: 6.25 micrograms/kg/injection, schedule: Q01DX005 (ip), vehicle: Klucel (hydroxypropylcellulose) (HPC)) 142 % of control; (dose: 12.5 micrograms/kg/injection, schedule: Q01DX005 (ip), vehicle: Klucel (hydroxypropylcellulose) (HPC)) 126 % of control; under setting [6], 147 % of control. In addition, the survivor count is reported as 6 of 6 (dose: 25.0 micrograms/kg/injection, schedule: Q01DX005 (ip), vehicle: Klucel (hydroxypropylcellulose) (HPC)); 5 of 6 under setting [6]; 0 of 6 (dose: 100.0 micrograms/kg/injection, schedule: Q01DX005 (ip), vehicle: Klucel (hydroxypropylcellulose) (HPC)); 0 of 6 (dose: 200.0 micrograms/kg/injection, schedule: Q01DX005 (ip), vehicle: Klucel (hydroxypropylcellulose) (HPC)).
With `CC(=O)N=c1sccn1CC(=O)c1ccccc1`, the survivor count (dose: 100.0 mg/kg/injection, schedule: Q04DX003 (ip), vehicle: Klucel (hydroxypropylcellulose) (HPC)) was 6 of 6.
